Experimental data published in publication PMC5707401.
Where two headings read alike, the source gives them in different places. No constants are given. Whether binding was seen depends on the method and setting. Binding seen in cells or lysates may run through a third protein. Some entries that bind do so weakly or less than the wild type. For part of these data: Where a sequence is shown, tags or fusion partners need not be part of it.

The chains behind the UniProt entries cited, without tags or fusion partners.
UniProt Q9UMS4: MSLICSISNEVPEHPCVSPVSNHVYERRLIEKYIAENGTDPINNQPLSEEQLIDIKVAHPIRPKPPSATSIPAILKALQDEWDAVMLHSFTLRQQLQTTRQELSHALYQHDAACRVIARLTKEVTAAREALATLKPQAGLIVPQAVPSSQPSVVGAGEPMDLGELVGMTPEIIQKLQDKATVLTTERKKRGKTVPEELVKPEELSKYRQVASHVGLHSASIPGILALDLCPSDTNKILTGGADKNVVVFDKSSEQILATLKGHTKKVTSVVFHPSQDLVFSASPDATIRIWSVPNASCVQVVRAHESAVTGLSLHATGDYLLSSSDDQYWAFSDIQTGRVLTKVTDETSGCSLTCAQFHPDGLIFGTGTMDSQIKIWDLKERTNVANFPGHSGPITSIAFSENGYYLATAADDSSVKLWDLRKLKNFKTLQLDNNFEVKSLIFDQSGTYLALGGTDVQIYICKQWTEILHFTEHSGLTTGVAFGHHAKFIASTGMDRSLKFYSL
UniProt O95816: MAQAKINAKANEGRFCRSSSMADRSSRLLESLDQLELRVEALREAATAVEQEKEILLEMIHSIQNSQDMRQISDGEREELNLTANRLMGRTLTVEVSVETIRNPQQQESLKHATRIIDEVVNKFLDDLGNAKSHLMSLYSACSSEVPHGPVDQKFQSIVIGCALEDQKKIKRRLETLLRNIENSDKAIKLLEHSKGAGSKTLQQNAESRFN
UniProt P46379: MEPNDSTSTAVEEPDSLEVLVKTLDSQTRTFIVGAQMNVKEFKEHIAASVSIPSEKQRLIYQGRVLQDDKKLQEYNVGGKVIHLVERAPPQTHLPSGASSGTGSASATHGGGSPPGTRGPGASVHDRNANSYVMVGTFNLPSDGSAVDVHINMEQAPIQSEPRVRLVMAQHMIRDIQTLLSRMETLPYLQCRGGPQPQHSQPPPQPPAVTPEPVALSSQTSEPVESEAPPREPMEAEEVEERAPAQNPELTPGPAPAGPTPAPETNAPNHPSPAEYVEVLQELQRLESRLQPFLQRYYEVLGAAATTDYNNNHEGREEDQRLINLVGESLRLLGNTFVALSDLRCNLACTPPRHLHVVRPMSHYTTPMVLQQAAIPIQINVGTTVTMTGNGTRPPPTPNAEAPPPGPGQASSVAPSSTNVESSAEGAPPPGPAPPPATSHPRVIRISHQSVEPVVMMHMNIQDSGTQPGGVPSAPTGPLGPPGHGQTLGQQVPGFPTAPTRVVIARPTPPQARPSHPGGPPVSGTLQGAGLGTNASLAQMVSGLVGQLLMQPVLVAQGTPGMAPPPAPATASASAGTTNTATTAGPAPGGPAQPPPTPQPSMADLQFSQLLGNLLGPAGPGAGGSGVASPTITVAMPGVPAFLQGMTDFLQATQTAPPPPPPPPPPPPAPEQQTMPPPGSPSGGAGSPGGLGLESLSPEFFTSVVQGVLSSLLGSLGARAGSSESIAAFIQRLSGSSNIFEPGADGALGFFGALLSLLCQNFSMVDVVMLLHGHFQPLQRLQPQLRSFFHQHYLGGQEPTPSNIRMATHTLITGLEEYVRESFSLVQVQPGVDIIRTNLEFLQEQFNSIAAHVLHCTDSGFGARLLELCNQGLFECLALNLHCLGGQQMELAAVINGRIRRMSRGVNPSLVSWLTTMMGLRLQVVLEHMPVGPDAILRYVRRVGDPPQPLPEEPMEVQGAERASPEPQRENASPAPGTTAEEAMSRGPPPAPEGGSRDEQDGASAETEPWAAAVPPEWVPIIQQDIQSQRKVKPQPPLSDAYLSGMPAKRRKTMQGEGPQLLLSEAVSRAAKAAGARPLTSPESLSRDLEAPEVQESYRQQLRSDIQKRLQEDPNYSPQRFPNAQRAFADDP
UniProt P0DMV8: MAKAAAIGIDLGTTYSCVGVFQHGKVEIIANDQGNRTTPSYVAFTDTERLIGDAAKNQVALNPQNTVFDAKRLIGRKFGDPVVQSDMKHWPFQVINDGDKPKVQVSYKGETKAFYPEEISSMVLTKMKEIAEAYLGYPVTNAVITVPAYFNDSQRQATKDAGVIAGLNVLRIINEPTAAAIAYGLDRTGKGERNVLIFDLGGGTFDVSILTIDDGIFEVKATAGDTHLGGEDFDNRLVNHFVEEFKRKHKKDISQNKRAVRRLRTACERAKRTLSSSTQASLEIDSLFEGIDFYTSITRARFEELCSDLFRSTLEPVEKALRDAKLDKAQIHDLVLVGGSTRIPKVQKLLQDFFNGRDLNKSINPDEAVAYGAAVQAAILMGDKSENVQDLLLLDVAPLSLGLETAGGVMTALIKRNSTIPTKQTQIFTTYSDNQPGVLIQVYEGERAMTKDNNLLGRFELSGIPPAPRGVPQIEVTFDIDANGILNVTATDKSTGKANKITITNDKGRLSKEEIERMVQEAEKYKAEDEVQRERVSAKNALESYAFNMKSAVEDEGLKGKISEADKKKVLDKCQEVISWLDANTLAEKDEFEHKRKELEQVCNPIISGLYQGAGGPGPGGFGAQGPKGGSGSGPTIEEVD
UniProt O95602: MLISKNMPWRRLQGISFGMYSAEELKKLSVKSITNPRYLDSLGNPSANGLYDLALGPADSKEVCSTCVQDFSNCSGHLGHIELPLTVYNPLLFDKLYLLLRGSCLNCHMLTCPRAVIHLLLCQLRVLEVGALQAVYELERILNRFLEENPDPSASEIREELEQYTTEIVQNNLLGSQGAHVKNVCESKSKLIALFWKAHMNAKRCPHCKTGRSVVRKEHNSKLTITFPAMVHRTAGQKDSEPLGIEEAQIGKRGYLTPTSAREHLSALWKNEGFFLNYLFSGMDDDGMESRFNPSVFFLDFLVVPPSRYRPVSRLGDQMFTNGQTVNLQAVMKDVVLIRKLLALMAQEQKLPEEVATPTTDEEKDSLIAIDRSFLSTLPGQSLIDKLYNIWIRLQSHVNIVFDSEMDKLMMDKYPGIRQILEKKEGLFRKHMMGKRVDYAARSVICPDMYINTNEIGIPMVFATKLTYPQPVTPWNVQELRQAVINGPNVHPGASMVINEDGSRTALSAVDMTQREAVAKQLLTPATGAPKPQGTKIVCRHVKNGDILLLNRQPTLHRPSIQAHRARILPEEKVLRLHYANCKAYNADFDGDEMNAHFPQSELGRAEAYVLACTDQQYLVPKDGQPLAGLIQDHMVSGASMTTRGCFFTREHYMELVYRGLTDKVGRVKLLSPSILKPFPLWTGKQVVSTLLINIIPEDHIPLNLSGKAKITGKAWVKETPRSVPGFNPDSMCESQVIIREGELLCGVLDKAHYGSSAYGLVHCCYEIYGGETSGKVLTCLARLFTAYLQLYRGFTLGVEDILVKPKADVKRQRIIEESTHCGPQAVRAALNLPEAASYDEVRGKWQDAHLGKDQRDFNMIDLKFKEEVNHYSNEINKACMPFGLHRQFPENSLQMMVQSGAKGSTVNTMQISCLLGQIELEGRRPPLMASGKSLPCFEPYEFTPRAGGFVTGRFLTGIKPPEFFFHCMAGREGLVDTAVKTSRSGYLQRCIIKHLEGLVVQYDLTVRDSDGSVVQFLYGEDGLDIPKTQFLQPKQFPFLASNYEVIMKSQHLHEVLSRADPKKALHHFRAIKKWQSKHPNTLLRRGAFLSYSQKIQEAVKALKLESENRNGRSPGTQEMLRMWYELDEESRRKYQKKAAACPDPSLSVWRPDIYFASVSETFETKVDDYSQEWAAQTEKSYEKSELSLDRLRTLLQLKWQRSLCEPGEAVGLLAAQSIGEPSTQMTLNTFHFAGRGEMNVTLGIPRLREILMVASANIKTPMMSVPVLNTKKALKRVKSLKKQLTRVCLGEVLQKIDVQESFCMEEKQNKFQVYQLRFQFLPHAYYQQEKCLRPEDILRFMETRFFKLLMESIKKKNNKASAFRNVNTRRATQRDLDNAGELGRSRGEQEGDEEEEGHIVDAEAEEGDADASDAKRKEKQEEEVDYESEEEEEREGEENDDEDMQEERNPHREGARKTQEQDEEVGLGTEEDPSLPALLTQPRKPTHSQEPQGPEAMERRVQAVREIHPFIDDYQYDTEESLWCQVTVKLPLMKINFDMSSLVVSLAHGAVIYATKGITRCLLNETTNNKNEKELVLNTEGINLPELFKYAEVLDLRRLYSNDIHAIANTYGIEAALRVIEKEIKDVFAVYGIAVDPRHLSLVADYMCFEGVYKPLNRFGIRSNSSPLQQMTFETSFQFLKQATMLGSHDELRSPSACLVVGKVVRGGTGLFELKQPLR

Tests used:
[1] = target: GFP-tagged PRPF19 (human) (UniProt Q9UMS4); assay: co-IP; GFP-tagged RBUL or GFP empty vector transiently expressed in HEK293T; lysis in mRIPA buffer; GFP-trap agarose beads, 1 h at 4 °C; Western blot
[2] = target: endogenous PRPF19 (human (endogenous in HEK293T)) (UniProt Q9UMS4); assay: co-IP; endogenous PRPF19 pulled down with a PRPF19-specific antibody from untransfected HEK293T cells; control omitting the antibody; Western blot
GFP-tagged MEX3B (human) [3] = target: T1, GFP-tagged MEX3B (human) (UniProt Q6ZN04); assay: co-IP; GFP-tagged RBUL or GFP empty vector transiently expressed in HEK293T; lysis in mRIPA buffer; GFP-trap agarose beads, 1 h at 4 °C; Western blot
T1 sequence: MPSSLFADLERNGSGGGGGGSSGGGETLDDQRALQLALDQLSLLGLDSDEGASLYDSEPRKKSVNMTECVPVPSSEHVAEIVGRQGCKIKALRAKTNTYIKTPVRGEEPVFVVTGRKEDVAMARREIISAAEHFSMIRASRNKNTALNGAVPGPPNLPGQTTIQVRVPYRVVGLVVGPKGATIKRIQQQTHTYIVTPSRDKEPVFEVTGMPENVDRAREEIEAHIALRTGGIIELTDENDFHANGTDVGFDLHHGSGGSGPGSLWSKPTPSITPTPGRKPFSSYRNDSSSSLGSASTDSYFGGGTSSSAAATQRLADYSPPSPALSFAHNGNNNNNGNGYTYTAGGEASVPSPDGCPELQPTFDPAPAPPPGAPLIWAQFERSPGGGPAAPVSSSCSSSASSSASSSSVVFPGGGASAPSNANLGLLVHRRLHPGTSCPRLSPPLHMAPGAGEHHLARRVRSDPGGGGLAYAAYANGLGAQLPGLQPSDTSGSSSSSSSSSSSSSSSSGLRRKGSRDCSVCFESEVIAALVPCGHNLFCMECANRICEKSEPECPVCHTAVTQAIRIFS

GFP-tagged MEX3B (human) [4] = target: T1, GFP-tagged MEX3B (human); assay: as above; remark: listed apart in the source

Molecule: BAG2 (from UniProt O95816 1-211)
- binding [1]: binds
- binding [2]: binds

Molecule: BAG6/BAT3 (from UniProt P46379 1-1132)
- binding [1]: binds
- binding [2]: binds

Molecule: HSPA1A (from UniProt P0DMV8 1-641)
- binding (GFP-tagged MEX3B (human) [3]): binds
- binding [1]: binds
- binding [2]: binds weakly

Molecule: POLR1A (from UniProt O95602 1-1720)
- binding (GFP-tagged MEX3B (human) [3]): binds

Molecule: ubiquitin-dependent co-chaperone VCP (from UniProt P55072 1-806)
- binding (GFP-tagged MEX3B (human) [3]): binds
- binding [1]: binds
- binding [2]: binds

B1: POLR3A (protein, UniProt O14802 1-1390)
chain: MVKEQFRETDVAKKISHICFGMKSPEEMRQQAHIQVVSKNLYSQDNQHAPLLYGVLDHRMGTSEKDRPCETCGKNLADCLGHYGYIDLELPCFHVGYFRAVIGILQMICKTCCHIMLSQEEKKQFLDYLKRPGLTYLQKRGLKKKISDKCRKKNICHHCGAFNGTVKKCGLLKIIHEKYKTNKKVVDPIVSNFLQSFETAIEHNKEVEPLLGRAQENLNPLVVLNLFKRIPAEDVPLLLMNPEAGKPSDLILTRLLVPPLCIRPSVVSDLKSGTNEDDLTMKLTEIIFLNDVIKKHRISGAKTQMIMEDWDFLQLQCALYINSELSGIPLNMAPKKWTRGFVQRLKGKQGRFRGNLSGKRVDFSGRTVISPDPNLRIDEVAVPVHVAKILTFPEKVNKANINFLRKLVQNGPEVHPGANFIQQRHTQMKRFLKYGNREKMAQELKYGDIVERHLIDGDVVLFNRQPSLHKLSIMAHLARVKPHRTFRFNECVCTPYNADFDGDEMNLHLPQTEEAKAEALVLMGTKANLVTPRNGEPLIAAIQDFLTGAYLLTLKDTFFDRAKACQIIASILVGKDEKIKVRLPPPTILKPVTLWTGKQIFSVILRPSDDNPVRANLRTKGKQYCGKGEDLCANDSYVTIQNSELMSGSMDKGTLGSGSKNNIFYILLRDWGQNEAADAMSRLARLAPVYLSNRGFSIGIGDVTPGQGLLKAKYELLNAGYKKCDEYIEALNTGKLQQQPGCTAEETLEALILKELSVIRDHAGSACLRELDKSNSPLTMALCGSKGSFINISQMIACVGQQAISGSRVPDGFENRSLPHFEKHSKLPAAKGFVANSFYSGLTPTEFFFHTMAGREGLVDTAVKTAETGYMQRRLVKSLEDLCSQYDLTVRSSTGDIIQFIYGGDGLDPAAMEGKDEPLEFKRVLDNIKAVFPCPSEPALSKNELILTTESIMKKSEFLCCQDSFLQEIKKFIKGVSEKIKKTRDKYGINDNGTTEPRVLYQLDRITPTQVEKFLETCRDKYMRAQMEPGSAVGALCAQSIGEPGTQMTLKTFHFAGVASMNITLGVPRIKEIINASKAISTPIITAQLDKDDDADYARLVKGRIEKTLLGEISEYIEEVFLPDDCFILVKLSLERIRLLRLEVNAETVRYSICTSKLRVKPGDVAVHGEAVVCVTPRENSKSSMYYVLQFLKEDLPKVVVQGIPEVSRAVIHIDEQSGKEKYKLLVEGDNLRAVMATHGVKGTRTTSNNTYEVEKTLGIEAARTTIINEIQYTMVNHGMSIDRRHVMLLSDLMTYKGEVLGITRFGLAKMKESVLMLASFEKTADHLFDAAYFGQKDSVCGVSECIIMGIPMNIGTGLFKLLHKADRDPNPPKRPLIFDTNEFHIPLVT
- binding (GFP-tagged MEX3B (human) [4]): binds
